## Drug screen on melanoma cell lines: apoptosis marker

From a melanoma drug combination screen (doi:10.1371/journal.pone.0140310); values rounded.

Drugs:
PF-562271, 400 nM: CN(c1ncccc1CNc1nc(Nc2ccc3c(c2)CC(=O)N3)ncc1C(F)(F)F)S(C)(=O)=O
GW441756, 2000 nM: Cn1cc(/C=C2\C(=O)Nc3cccnc32)c2ccccc21
vatalanib, 10000 nM: Clc1ccc(Nc2nnc(Cc3ccncc3)c3ccccc23)cc1
erlotinib, 4000 nM: C#Cc1cccc(Nc2ncnc3cc(OCCOC)c(OCCOC)cc23)c1
MK-2206, 2000 nM: NC1(c2ccc(-c3nc4ccn5c(=O)[nH]nc5c4cc3-c3ccccc3)cc2)CCC1
fingolimod, 10000 nM: CCCCCCCCc1ccc(CCC(N)(CO)CO)cc1
MK-1775, 100 nM: C=CCn1c(=O)c2cnc(Nc3ccc(N4CCN(C)CC4)cc3)nc2n1-c1cccc(C(C)(C)O)n1
JZL184, 5000 nM: O=C(Oc1ccc([N+](=O)[O-])cc1)N1CCC(C(O)(c2ccc3c(c2)OCO3)c2ccc3c(c2)OCO3)CC1
bexarotene, 10000 nM: C=C(c1ccc(C(=O)O)cc1)c1cc2c(cc1C)C(C)(C)CCC2(C)C
KU-0063794, 100 nM: COc1ccc(-c2ccc3c(N4CCOCC4)nc(N4C[C@@H](C)O[C@@H](C)C4)nc3n2)cc1CO
selumetinib, 75 nM: Cn1cnc2c(F)c(Nc3ccc(Br)cc3Cl)c(C(=O)NOCCO)cc21
AZD7762, 100 nM: NC(=O)Nc1cc(-c2cccc(F)c2)sc1C(=O)N[C@H]1CCCNC1

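Human melanoma cell lines in 1,536-well plates were treated with two drugs together for 72 h, then fixed, stained and imaged. Each value is the cleaved-PARP-positive fraction of nuclei relative to DMSO-treated wells, in %, so that 100 equals the control and higher values mean more apoptosis. Concentrations were fixed for each drug; these are the higher of two levels. The file gives one value for each pair and line, without errors, so small differences may be noise. The marker varies much from line to line, for technical or biological reasons.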 This is part of the screen, not chosen by result. An entry leaves out what has no value listed here. A dash means that no value is listed here.

Drugs,SK-MEL-30,WM115,MZ2-MEL,SK-MEL-28,WM1716,WM451Lu,G-361,COLO 792,COLO 800,MeWo,SK-MEL-2,IST-MEL1
PF-562271 + JZL184,151,116,48.0,58.4,103,58.4,140,65.8,117,23.2,122,100
JZL184 + MK-2206,159,616,83.3,117,61.4,113,117,29.0,225,142,78.1,58.0
KU-0063794 + JZL184,78.9,243,86.9,47.1,29.4,84.9,61.6,96.7,103,43.4,111,117
AZD7762 + PF-562271,103,133,131,189,94.1,75.4,149,148,84.6,85.4,102,103
MK-1775 + AZD7762,905,476,99.3,194,1110,2390,260,508,357,1300,951,386
bexarotene + selumetinib,147,112,-,40.3,86.0,130,162,73.9,91.5,40.7,191,341
vatalanib + selumetinib,62.9,267,279,96.3,244,46.2,193,104,132,83.9,151,262
vatalanib + erlotinib,107,124,88.1,256,86.0,83.1,152,332,85.1,58.9,106,170
MK-1775 + KU-0063794,197,115,22.5,384,22.9,91.7,90.6,178,93.9,89.9,59.8,97.7
KU-0063794 + fingolimod,871,1700,9210,-,16100,4650,31600,6940,3460,2610,14900,803
AZD7762 + KU-0063794,155,143,62.2,225,327,530,115,272,141,171,197,220
JZL184 + bexarotene,102,217,637,147,215,197,304,92.5,82.0,26.1,90.8,41.6
selumetinib + MK-2206,76.5,1190,530,111,25.4,122,503,272,203,148,342,132
bexarotene + KU-0063794,37.0,105,174,50.9,101,62.6,109,81.4,235,130,124,74.1
erlotinib + JZL184,120,61.9,66.0,209,87.6,106,90.7,233,207,37.0,174,52.9
MK-2206 + vatalanib,186,387,125,57.2,50.6,56.5,80.5,503,71.2,86.3,191,100
KU-0063794 + vatalanib,46.1,56.8,303,60.3,113,72.0,80.0,187,108,184,67.2,67.2
PF-562271 + vatalanib,206,348,240,106,279,134,245,242,74.7,108,218,239
PF-562271 + KU-0063794,78.2,110,133,45.3,123,165,40.0,127,112,227,122,73.5
AZD7762 + fingolimod,1770,2530,15700,1820,13600,1210,15800,17700,227,1940,16500,1900
KU-0063794 + GW441756,70.5,54.6,-,53.9,59.3,100,67.9,146,150,182,-,100
MK-1775 + erlotinib,97.5,102,213,239,158,134,100,300,86.5,51.5,160,405
bexarotene + erlotinib,82.6,160,134,135,82.1,84.5,81.3,124,68.3,66.6,168,25.6
vatalanib + GW441756,98.8,108,164,219,55.3,115,60.1,195,82.8,28.6,67.8,71.5
selumetinib + AZD7762,428,272,400,239,202,435,218,347,277,233,312,110
fingolimod + MK-1775,1020,5780,6160,6300,1770,867,2340,5720,326,819,18200,996
fingolimod + MK-2206,3680,3770,594,5800,803,1740,5400,8740,124,278,7120,1530
GW441756 + JZL184,88.4,50.0,159,43.2,146,91.1,53.2,121,191,44.6,84.7,61.2
vatalanib + AZD7762,261,52.5,117,382,408,70.2,161,492,201,80.0,110,193
selumetinib + fingolimod,3120,4330,1840,4750,190,1540,1230,5890,197,231,11100,1680
JZL184 + selumetinib,196,121,181,40.7,68.9,60.7,165,43.5,158,64.7,278,87.7
vatalanib + fingolimod,1540,3570,9690,-,14200,1410,4350,10500,444,1480,3650,3430
MK-1775 + bexarotene,154,68.5,135,383,184,48.3,116,72.8,102,185,72.4,191
MK-1775 + vatalanib,279,135,240,225,302,138,117,204,139,137,101,210

Some entries from above, unchanged:

{"drugs": "erlotinib + JZL184", "SK-MEL-30": 120, "WM115": 61.9, "MZ2-MEL": 66.0, "SK-MEL-28": 209, "WM1716": 87.6, "WM451Lu": 106, "G-361": 90.7, "COLO 792": 233, "COLO 800": 207, "MeWo": 37.0, "SK-MEL-2": 174, "IST-MEL1": 52.9}
{"drugs": "bexarotene + selumetinib", "SK-MEL-30": 147, "WM115": 112, "SK-MEL-28": 40.3, "WM1716": 86.0, "WM451Lu": 130, "G-361": 162, "COLO 792": 73.9, "COLO 800": 91.5, "MeWo": 40.7, "SK-MEL-2": 191, "IST-MEL1": 341}
{"drugs": "MK-1775 + bexarotene", "SK-MEL-30": 154, "WM115": 68.5, "MZ2-MEL": 135, "SK-MEL-28": 383, "WM1716": 184, "WM451Lu": 48.3, "G-361": 116, "COLO 792": 72.8, "COLO 800": 102, "MeWo": 185, "SK-MEL-2": 72.4, "IST-MEL1": 191}
{"drugs": "AZD7762 + KU-0063794", "SK-MEL-30": 155, "WM115": 143, "MZ2-MEL": 62.2, "SK-MEL-28": 225, "WM1716": 327, "WM451Lu": 530, "G-361": 115, "COLO 792": 272, "COLO 800": 141, "MeWo": 171, "SK-MEL-2": 197, "IST-MEL1": 220}